Results published in PubChem BioAssay AID540256 (National Center for Advancing Translational Sciences (NCATS), 2011).
About 3,700 (1.2%) of roughly 300,000 compounds were called active. This list was built around the results that the source calls inconclusive (neither active nor inactive); the mix of calls is not that of the screen. The call rests on the fitted dose curve; tested in HEK293 cells. Where the call is inconclusive, the potency comes from a doubtful curve fit. More than one record can exist for a structure, and the calls need not agree.

Experiment: qHTS for Inhibitors of binding or entry into cells for Lassa Virus; further: nearly all actives have a fitted effect of over 50% in size
Settings: Lassa virus pseudotype entry inhibition, cell reporter; activity change, negative = inhibition: at 37.9 µM (top of the series) unless noted
On the % scale 0 is the no-effect control and ±100 the full control effect; potency means the concentration at half of the fitted maximal effect.

Row | Structure (SMILES) | Potency | activity change, negative = inhibition
1 | Cc1cc(-n2c(C)cc(C(=O)CSc3ccc4c(c3)OCCO4)c2C)no1 | inconclusive: 2.91 µM [inhibitor, partial curve] | 
2 | O=c1c2oc3ccccc3c2n(Cc2ccccc2F)c(=O)n1Cc1ccco1 |  | inactive: 10.5% [at 46.1 µM]
3 | CCCC(=O)Nc1cccc(-c2nc3ccccc3c(=O)o2)c1 |  | inactive: -11.6% [at 46.1 µM]
4 | CC(=O)Nc1cccc(N2C(=O)CC(Cc3ccccc3)C2=O)c1 (configuration not stated) |  | inactive: -2.69%
5 | Cc1c(C(=O)O)sc2nc(/C=C/c3cccc(O)c3)[nH]c(=O)c12 | inconclusive: 0.562 µM [inhibitor, full curve, poor fit] | 
6 | c1ccc2nc(C3=NCCN3)ccc2c1 | inconclusive: 29.1 µM [activator, single point] | 
7 | O=NN(CCc1ccncc1)c1ccc(OCc2ccccc2)cc1 | inconclusive: 20 µM [inhibitor, partial curve, poor fit] | 
8 | Nc1c(C(=O)NCc2ccco2)c2nc3ccccc3nc2n1Cc1ccccc1 |  | inactive: -23%
9 | CNc1nc(SCc2ccccc2Cl)nc2c1CCCC2 | inconclusive: 35.5 µM [inhibitor, single point] | 
10 | O=C(NC1=CC(=O)c2ccccc2C1=O)c1ccccc1 | inconclusive: 8.91 µM [inhibitor, partial curve, poor fit] | 
11 | COc1ccc(S(=O)(=O)N(Cc2nc(-c3cccc(C)c3)no2)C2CCCCC2)cc1 |  | inactive: -0.721% [at 46.1 µM]
12 | Cc1ccc(-n2cnc3cc(NCc4cccs4)ccc32)cc1 | inconclusive: 7.3 µM [inhibitor, partial curve] | 
13 | COc1cc(Cl)c(C)cc1NC(=O)COc1ccccc1[N+](=O)[O-] |  | inactive: 21.8%
14 | Cc1cccnc1NC(=O)CN1C(=O)c2ccccc2S1(=O)=O |  | inactive: 22.4%
15 | Oc1[nH]c2ccccc2c1N=Nc1ccccn1 | inconclusive: 0.794 µM [activator, full curve, poor fit] | 
16 | CCOC(=O)CN1C(=O)S/C(=C/c2ccc(N3CCCCC3)o2)C1=O |  | inactive: -10.8%
17 | CCOc1ccc(C(C)NC(=S)NCc2ccc(F)cc2)cc1 (configuration not stated) | inconclusive: 35.5 µM [inhibitor, partial curve, poor fit] | 
18 | Cc1cc(Cl)ccc1NC(=O)c1ccc2c(c1)OCO2 | inconclusive: 1.12 µM [activator, partial curve, poor fit] | 
19 | CSc1nc(=O)n(-c2ccccc2)c(C)c1C(C)=O | inconclusive: 4.11 µM [activator, partial curve] | 
20 | COC(=O)C1=C(C)N(Cc2ccccc2)C(=NCCc2ccc([N+](=O)[O-])cc2)NC1c1cccc(F)c1 (configuration not stated) | inconclusive: 1.88 µM [activator, partial curve, poor fit] | 
21 | OCCCNc1c2ccccc2nc2ccccc12 | inconclusive: 6.31 µM [inhibitor, partial curve, poor fit] | 
22 | c1ccc(-c2ccc(CNC3CC3)cc2)cc1 | inconclusive: 5.62 µM [activator, single point] | 
23 | NC(=O)c1ccc(Oc2nccc(-c3c(-c4ccc(F)cc4)ncn3C3CCNCC3)n2)cc1 | inconclusive: 12.5 µM [inhibitor, single point] | 
24 | COc1ccc(C2C3=C(CC(C)(C)CC3=O)Oc3ncn(Cc4ccco4)c(=N)c32)cc1 (configuration not stated) | inconclusive: 16.4 µM [inhibitor, single point] | 

In the list so far, 2 contain a thiophene ring, fused or not.
Row | Structure (SMILES) | Potency | activity change, negative = inhibition
5 | Cc1c(C(=O)O)sc2nc(/C=C/c3cccc(O)c3)[nH]c(=O)c12 | inconclusive: 0.562 µM [inhibitor, full curve, poor fit] | 
12 | Cc1ccc(-n2cnc3cc(NCc4cccs4)ccc32)cc1 | inconclusive: 7.3 µM [inhibitor, partial curve] | 

Further compounds:

Row | Structure (SMILES) | Potency | activity change, negative = inhibition
25 | O=C(CNC(=O)c1ccco1)N/N=C/c1cccs1 | inconclusive: 35.5 µM [activator, single point] | 
26 | CCOC(=O)c1c(/N=C/c2c(O)n(-c3cccc(C)c3)c(=O)[nH]c2=O)sc2c1CCCC2 |  | inactive: 1.16%
27 | CCN(CC(=O)Nc1ccccc1C(F)(F)F)C(=O)c1ccc2[nH]c3c(c2c1)CC(C)CC3 (configuration not stated) | inconclusive: 35.5 µM [inhibitor, single point] | 
28 | O=C(COc1ccc(Cl)cc1Br)NCC(c1ccco1)N1CCCC1 (configuration not stated) |  | inactive: 0.42%
29 | CC(=O)c1ccc(N2CCN(C(=O)c3ccc(Cn4c(=S)[nH]c5ccc(N6CCOCC6)cc5c4=O)cc3)CC2)cc1 |  | inactive: 9.88%
30 | O=C(CN1CCN(Cc2ccccc2Cl)C1=O)NCc1ccccc1Cl |  | inactive: 9.79% [at 46.1 µM]
31 | O=C(c1ccc(F)cc1F)N1CCCC(c2nc(-c3ccc(F)cc3)no2)C1 (configuration not stated) | inconclusive: 7.08 µM [inhibitor, partial curve, poor fit] | 
32 | COC(=O)C1=C(C)N(Cc2ccco2)C(=O)N[C@@H]1c1cccc(C(F)(F)F)c1 |  | inactive: -22.3%
33 | Fc1cccc(NCc2cn3ccccc3n2)c1 | inconclusive: 3.26 µM [activator, single point] | 
34 | O=C(C=Cc1ccccc1)CC(c1ccccc1)N1CCOCC1 (configuration not stated) | inconclusive: 12.6 µM [inhibitor, partial curve, poor fit] | 
35 | CCN(CC)CCOC(=O)c1ccc(NC(=O)c2ccc(Cl)c(S(=O)(=O)N3CCCCCC3)c2)cc1 | inconclusive: 35.5 µM [inhibitor, single point] | 
36 | O=C(NNC(=O)c1cccnc1)Nc1ccc(Cl)c(Cl)c1 | inconclusive: 35.5 µM [activator, single point] | 
37 | CC(=O)c1cccc(NC(=O)Cn2c(SCC(=O)Nc3ccc(F)cc3)nc3ccccc32)c1 |  | inactive: -21.5% [at 46.1 µM]
38 | N#Cc1ccc(CSC2=NCCN2)cc1 | inconclusive: 1.41 µM [activator, partial curve, poor fit] | 
39 | O=C(N/N=C/c1cnc2ccccc2n1)c1cccc(F)c1 |  | inactive: 8.71%
40 | O=C(Nc1nc(-c2ccc(Br)cc2)ns1)c1ccc(F)cc1 |  | inactive: -1.58% [at 46.1 µM]
41 | Cc1ccc2oc(C(=O)N(CCO)Cc3ccccc3)c(C)c2c1 |  | inactive: 13.5% [at 46.1 µM]
42 | CCCCOc1ccc(C2c3c(-c4ccccc4O)n[nH]c3C(=O)N2Cc2ccncc2)cc1OC (configuration not stated) | inconclusive: 1.12 µM [inhibitor, full curve, poor fit] | 
43 | Cc1cc(F)ccc1S(=O)(=O)Nc1ccccc1C(=O)NC1CCN(Cc2ccccc2)CC1 | inconclusive: 22.4 µM [inhibitor, single point] | 
44 | COc1ccccc1OCC(=O)Nc1ccccn1 | inconclusive: 1.46 µM [activator, partial curve] | 
45 | Cc1c(NC(=O)OCCNC(=O)Nc2ccccc2)sc(=S)n1C |  | inactive: 6.21%
46 | CC(CNC(=O)Cn1ccc2cc(S(=O)(=O)N3CCCCC3)ccc21)c1ccccc1 (configuration not stated) |  | inactive: -7.49% [at 46.1 µM]
47 | Cc1ccc(NCN2C(=O)C3C4C=CC(C4)C3C2=O)cc1 (configuration not stated) |  | inactive: 4.02%
48 | CC(C)(C)c1ccc(C(O)CCCN2CCC(C(O)(c3ccccc3)c3ccccc3)CC2)cc1 (configuration not stated) | active: 2.91 µM | 

Row | Structure (SMILES) | Potency | activity change, negative = inhibition
49 | O=C(NCC(c1ccc2c(c1)OCO2)N1CCOCC1)c1ccccc1F (configuration not stated) |  | inactive: -3.02% [at 46.1 µM]
50 | Cc1ccc(Cn2c(O)c(N=O)c3ccccc32)cc1 | inconclusive: 12.6 µM [inhibitor, partial curve, poor fit] | 
51 | CCc1ccc(CNC(=O)CCc2c(C)nn(-c3ccc(N4CCCCC4)nn3)c2C)cc1 | inconclusive: 22.4 µM [inhibitor, single point] | 
52 | CN1Cc2sc(NC(=S)NC(=O)c3ccccc3)c(C#N)c2CC1(C)C | inconclusive: 0.891 µM [inhibitor, full curve, poor fit] | 
53 | COc1ccc(OCC(O)Cn2c(Nc3ccccc3)nc3c2c(=O)n(C)c(=O)n3C)cc1 (configuration not stated) | inconclusive: 35.5 µM [inhibitor, single point] | 
54 | Fc1ccc(C(c2nnnn2Cc2cccs2)N2CCN(C3CCCC3)CC2)cc1 (configuration not stated) | inconclusive: 31.6 µM [inhibitor, single point] | 
55 | COc1cccc(NC(=O)COC(=O)c2ccccc2SCC(=O)N2CCCC2)c1 |  | inactive: 12.6%
56 | C=CCOc1ccc(C(c2c(O)nc(SC)[nH]c2=O)c2c(O)nc(SC)[nH]c2=O)cc1 |  | inactive: 0.329% [at 46.1 µM]
57 | COc1ccc(C(O)(C2CCCCC2)C(CN2CCCC2)c2ccccc2)cc1 (configuration not stated) | inconclusive: 35.5 µM [inhibitor, single point] | 
58 | O=C1CS/C(=N/N=C/c2ccccc2)N1Cc1ccco1 |  | inactive: -17.6%
59 | COc1ccc(C2c3cccn3CCN2S(=O)(=O)c2ccccc2[N+](=O)[O-])cc1OC (configuration not stated) | inconclusive: 5.01 µM [inhibitor, partial curve, poor fit] | 
60 | COc1cccc(CN2CCSCC2)c1 |  | inactive: 1.27%
61 | O=C(CCl)N(CCc1ccccc1)CCc1ccccc1 | inconclusive: 22.4 µM [inhibitor, single point] | 
62 | C=CCN(C(=O)CCS(=O)(=O)c1cccc2nsnc12)c1ccccc1 |  | inactive: -0.821%
63 | COc1ccc(NC(=S)Nc2ccc(Oc3ccccc3)cc2)cc1 |  | inactive: -22.3%
64 | COc1cccc(CNCCSc2nnnn2C)c1OCc1ccc(Cl)cc1Cl | inconclusive: 35.5 µM [inhibitor, single point] | 
65 | O=C(N/N=C/c1nn(-c2ccccc2)cc1-c1ccccc1)c1ccncc1 | inconclusive: 29.1 µM [inhibitor, single point] | 
66 | COc1ccc(-c2cc(C(F)F)n3ncc(C(=O)Nc4cc(OC)ccc4OC)c3n2)cc1 |  | inactive: 3.48% [at 46.1 µM]
67 | CCOc1ccc(NC(=O)Cc2coc3ccc(C)cc23)cc1 | inconclusive: 2.24 µM [activator, full curve] | 
68 | COc1ccc(-c2cc(C(=O)Nc3c(Cl)cc(Cl)cc3Cl)c3ccccc3n2)cc1OC | inconclusive: 1.26 µM [activator, partial curve, poor fit] | 
69 | COCCNC(=O)C(c1ccccc1)N(C(=O)Cn1nnc2ccccc21)c1cccnc1 (configuration not stated) | inconclusive: 2.31 µM [inhibitor, partial curve, poor fit] | 
70 | CC(C)[C@H](NC(=O)c1ccccc1Cl)C(=O)Nc1nc(-c2ccccn2)cs1 | inconclusive: 11.2 µM [inhibitor, partial curve, poor fit] | 
71 | COC(=O)c1cccc(COC(=O)c2ccc(N(C)C)cc2)c1 |  | inactive: 3.53%
72 | CC1CCC(C(C)C)C(OC(=O)C[n+]2cc(-c3ccc(Cl)cc3)n3c2CCCCC3)C1 (configuration not stated) | inconclusive: 35.5 µM [inhibitor, single point] | 

3 entries drawn at random from the list so far:
Row | Structure (SMILES) | Potency | activity change, negative = inhibition
58 | O=C1CS/C(=N/N=C/c2ccccc2)N1Cc1ccco1 |  | inactive: -17.6%
62 | C=CCN(C(=O)CCS(=O)(=O)c1cccc2nsnc12)c1ccccc1 |  | inactive: -0.821%
56 | C=CCOc1ccc(C(c2c(O)nc(SC)[nH]c2=O)c2c(O)nc(SC)[nH]c2=O)cc1 |  | inactive: 0.329% [at 46.1 µM]
